# Test results published in PubChem BioAssay AID210 (DTP/NCI, 2004).
# The list shows only some results of the screen, not a fair sample: it gathers tests that were run many times, whatever their T/C, doses with no T/C, and many T/C values between a quarter and a half above the control. Further doses and runs are listed elsewhere. T/C gives the treated animals as a percentage of the vehicle group. Some entries give survivors of the animals treated and no T/C: the source files T/C as zero there, which appears to mark a toxic dose or a test without result, not a measured value. Some doses without a T/C left all or most animals alive at the check, yet need not have been tolerated: the source hardly ever lists a survival T/C far under the control, and the zero likely stands for such cases as well. Survivors were counted at the toxicity check, usually on the fifth day, unless a day is given; later deaths do not show. Schedule codes are those of the source, read here as Q, the interval in days (D) or hours (H), X, the number of doses. Some doses were run more than once; the values are given in rising order. Where survival is the endpoint, the PubChem record calls one and a half times the control and up active, and a quarter to a half above the control has no call in these data; cut-offs in other NCI protocols can differ. Some T/C values carry the count of animals alive at the toxicity check (mostly the fifth day); without a count, all were alive then. Marks such as (2×) count equal records among those shown. *1 amine or outer side, *2 acyl side, *3 side chain or, on linkers, in order; H or OH if unused. Where a SMILES comes first, the peptide text is derived from it. Bridges are numbered along the chain shown (N, C = ends). Roman numbers before positions name the chains, in order. [ ]: non-standard residue; d: D form. Actinocin(9to1) = Cc1c2oc3c(C)ccc(C(=O)[*:1])c3nc-2c(C(=O)[*:2])c(N)c1=O; aThr = C[C@H](O)[C@H](N)C(=O)O; NMeV = CN[C@H](C(=O)O)C(C)C; Sar = CNCC(=O)O
# Test system: CD2F1 mice, ip Colon 26 adenocarcinoma, median survival T/C
# Experiment: NCI In Vivo Anticancer Drug Screen. Data for tumor model Colon 26 Adenocarcinoma (intraperitoneal) in CD2F1 (CDF1) mice
# Details: T/C endpoint: median survival time, higher T/C = longer survival
# Experimental: The antitumor activity of compounds was measured in mice bearing transplantable tumors. Survival or tumor size were measured and the results are expressed as the measurement made in the treated group (T) divided by the measurement made in the vehicle treated control group (C). The tumor model used in this assay is Colon 26 Adenocarcinoma (intraperitoneal) in CD2F1 (CDF1) mice
# [1] = dose: 25.0 mg/kg/injection, schedule: Q04DX003 (ip), vehicle: saline with Tween-80
# [2] = dose: 50.0 mg/kg/injection, schedule: Q04DX003 (ip), vehicle: saline with Tween-80
# [3] = dose: 100.0 mg/kg/injection, schedule: Q04DX003 (ip), vehicle: saline with Tween-80
# [4] = dose: 200.0 mg/kg/injection, schedule: Q04DX003 (ip), vehicle: saline with Tween-80
# [5] = dose: 400.0 mg/kg/injection, schedule: Q04DX003 (ip), vehicle: saline with Tween-80
# [6] = dose: 800.0 mg/kg/injection, schedule: Q04DX003 (oral), vehicle: saline with Tween-80
smiles,measurement,setting,value
CC1(CO)C(O)CCC2(C)C1CCC1CC3CC12CCC3(O)CO (stereo not given),T/C,[1],"96, 109, 113 % of control"
same,survivor count,[1],9 of 10
same,survivor count,"dose: 50.0 mg/kg/injection, schedule: Q01DX009 (ip), vehicle: saline with Tween-80",10 of 10
same,T/C,"dose: 50.0 mg/kg/injection, schedule: Q04DX002 (ip), vehicle: saline with Tween-80, evaluated on day 60","102, 106, 129, 135, 166 % of control"
same,T/C,"dose: 50.0 mg/kg/injection, schedule: Q04DX002 (ip), vehicle: saline with Tween-80, evaluated on day 75",106 % of control
same,T/C,[2],"109, 112, 124, 130 % of control"
same,survivor count,[2],0 of 10
same,survivor count,"dose: 100.0 mg/kg/injection, schedule: Q01DX009 (ip), vehicle: saline with Tween-80",10 of 10
same,T/C,"dose: 100.0 mg/kg/injection, schedule: Q04DX002 (ip), vehicle: saline with Tween-80, evaluated on day 60","127, 135 (2×), 151, 171, 188 % of control"
same,T/C,"dose: 100.0 mg/kg/injection, schedule: Q04DX002 (ip), vehicle: saline with Tween-80, evaluated on day 75",121 % of control
same,T/C,[3],"110, 115, 124, 126 % of control"
same,survivor count,[3],0 of 10
same,survivor count,"dose: 200.0 mg/kg/injection, schedule: Q01DX009 (ip), vehicle: saline with Tween-80",10 of 10
same,T/C,"dose: 200.0 mg/kg/injection, schedule: Q04DX002 (ip), vehicle: saline with Tween-80, evaluated on day 60","143, 153, 162, 164, 191 % of control"
same,T/C,"dose: 200.0 mg/kg/injection, schedule: Q04DX002 (ip), vehicle: saline with Tween-80, evaluated on day 75",119 % of control
same,survivor count,"dose: 200.0 mg/kg/injection, schedule: Q04DX002 (ip), vehicle: saline with Tween-80",10 of 10
same,T/C,[4],"115, 126, 130, 150 % of control"
same,survivor count,[4],0 of 10
same,T/C,"dose: 200.0 mg/kg/injection, schedule: Q04DX003 (oral), vehicle: saline with Tween-80","101 (2×), 109, 135 % of control"
same,survivor count,"dose: 400.0 mg/kg/injection, schedule: Q01DX009 (ip), vehicle: saline with Tween-80",8 of 10
same,T/C,"dose: 400.0 mg/kg/injection, schedule: Q04DX002 (ip), vehicle: saline with Tween-80, evaluated on day 60","125, 139, 159, 159 [8 of 10 alive], 191, 204 % of control"
same,T/C,"dose: 400.0 mg/kg/injection, schedule: Q04DX002 (ip), vehicle: saline with Tween-80, evaluated on day 75",173 % of control
same,T/C,[5],"132, 142, 156, 187 % of control"
same,survivor count,[5],0 of 10
same,T/C,"dose: 400.0 mg/kg/injection, schedule: Q04DX003 (oral), vehicle: saline with Tween-80","99, 103, 104, 171 % of control"
same,T/C,"dose: 800.0 mg/kg/injection, schedule: Q04DX002 (ip), vehicle: saline with Tween-80, evaluated on day 60","141 [8 of 10 alive], 154, 166 % of control"
same,T/C,"dose: 800.0 mg/kg/injection, schedule: Q04DX002 (ip), vehicle: saline with Tween-80, evaluated on day 75",118 % of control [9 of 10 alive]
same,survivor count,"dose: 800.0 mg/kg/injection, schedule: Q04DX002 (ip), vehicle: saline with Tween-80","4 of 10, 7 of 10, 9 of 10"
same,T/C,[6],"105, 107, 348 % of control"
same,survivor count,[6],6 of 6
same,survivor count,"dose: 1600.0 mg/kg/injection, schedule: Q04DX003 (oral), vehicle: saline with Tween-80",1 of 6
N=[N+]=CC(=O)OCC(N)C(=O)O (stereo not given),survivor count,"dose: 100.0 mg/kg/injection, schedule: Q04DX003 (ip), vehicle: water",1 of 10
Nc1ccc2nc3ccc(N)cc3[n+](-c3ccccc3)c2c1,T/C,"dose: 32.0 mg/kg/injection, schedule: Q04DX003 (ip), vehicle: saline",145 % of control
same,T/C,"dose: 64.0 mg/kg/injection, schedule: Q04DX003 (ip), vehicle: saline",125 % of control [9 of 10 alive]
same,survivor count,"dose: 128.0 mg/kg/injection, schedule: Q04DX003 (ip), vehicle: saline",1 of 10
CC/C(=C(/CC)c1ccc(O)cc1)c1ccc(O)cc1,survivor count,[4],10 of 10
CSC1SCC2C(=O)N(C)C(C(C)C)C(=O)OCC(NC(=O)c3cnc4ccccc4n3)C(=O)NC(C)C(=O)N(C)C1C(=O)N(C)C(C(C)C)C(=O)OCC(NC(=O)c1cnc3ccccc3n1)C(=O)NC(C)C(=O)N2C (stereo not given),survivor count,"dose: 50.0 micrograms/kg/injection, schedule: Q01DX004 (ip), vehicle: saline sonified",8 of 8 on day 10
same,survivor count,"dose: 50.0 micrograms/kg/injection, schedule: Q03DX002 (ip), vehicle: saline sonified",8 of 8 on day 10
"Cc1c2oc3c(C)ccc(C(=O)N[C@@H]4C(=O)N[C@H](C(C)C)C(=O)N5CCC[C@H]5C(=O)N(C)CC(=O)N(C)[C@@H](C(C)C)C(=O)O[C@H]4C)c3nc-2c(C(=O)N[C@@H]2C(=O)N[C@H](C(C)C)C(=O)N3CCC[C@H]3C(=O)N(C)CC(=O)N(C)[C@@H](C(C)C)C(=O)O[C@H]2C)c(N)c1=O (I: [aThr][dV]P[Sar][NMeV] / II: [aThr][dV]P[Sar][NMeV]; ester I:1-I:C, II:1-II:C; linker I:N-II:N via Actinocin(9to1))",T/C,"dose: 47.0 micrograms/kg/injection, schedule: Q04DX003 (ip), vehicle: saline",127 % of control
same,T/C,"dose: 78.0 micrograms/kg/injection, schedule: Q04DX003 (ip), vehicle: saline",127 % of control
same,T/C,"dose: 108.0 micrograms/kg/injection, schedule: Q04DX003 (ip), vehicle: saline + alcohol",146 % of control
same,T/C,"dose: 130.0 micrograms/kg/injection, schedule: Q04DX003 (ip), vehicle: saline",135 % of control
same,T/C,"dose: 300.0 micrograms/kg/injection, schedule: Q04DX003 (ip), vehicle: saline + alcohol",147 % of control
same,survivor count,"dose: 300.0 micrograms/kg/injection, schedule: Q04DX003 (ip), vehicle: saline",10 of 10
same,survivor count,"dose: 600.0 micrograms/kg/injection, schedule: Q04DX003 (ip), vehicle: saline",8 of 10
same,survivor count,"dose: 1000.0 micrograms/kg/injection, schedule: Q01DX001 (ip), vehicle: saline + alcohol",1 of 8
CCCCCCCCCCCCCCCCS(=O)CC(O)COC(=O)c1ccc(C(=O)OCC(O)CS(=O)CCCCCCCCCCCCCCCC)cc1 (stereo not given),survivor count,"dose: 200.0 mg/kg/injection, schedule: Q04DX002 (ip), vehicle: saline + alcohol",9 of 10
same,survivor count,"dose: 400.0 mg/kg/injection, schedule: Q04DX002 (ip), vehicle: saline + alcohol",7 of 10
CCN(CC)CCNc1ccc(C)c2sc3ccccc3c(=O)c12,T/C,"dose: 400.0 mg/kg/injection, schedule: Q04DX002 (ip), vehicle: suspension in saline",128 % of control
CC1CCC(NC(=O)N(CCCl)N=O)CC1 (stereo not given),survivor count,"dose: 40.0 mg/kg/injection, schedule: Q04DX003 (ip), vehicle: Klucel (hydroxypropylcellulose) (HPC)",10 of 10
Nc1n[nH]c(N)n1,T/C,"dose: 100.0 mg/kg/injection, schedule: Q04DX003 (ip), vehicle: saline, evaluated on day 60",100 and 109 % of control
same,T/C,"dose: 100.0 mg/kg/injection, schedule: Q04DX003 (ip), vehicle: saline, evaluated on day 70",96 and 108 % of control
same,T/C,"dose: 200.0 mg/kg/injection, schedule: Q04DX003 (ip), vehicle: saline, evaluated on day 60",107 and 116 % of control
same,T/C,"dose: 200.0 mg/kg/injection, schedule: Q04DX003 (ip), vehicle: saline, evaluated on day 70","100, 108, 109 % of control"
same,T/C,"dose: 400.0 mg/kg/injection, schedule: Q04DX003 (ip), vehicle: saline, evaluated on day 60",110 and 112 % of control
same,T/C,"dose: 400.0 mg/kg/injection, schedule: Q04DX003 (ip), vehicle: saline, evaluated on day 70",109 (2×) and 110 % of control
same,T/C,"dose: 800.0 mg/kg/injection, schedule: Q04DX003 (ip), vehicle: saline, evaluated on day 60",112 and 121 % of control
same,T/C,"dose: 800.0 mg/kg/injection, schedule: Q04DX003 (ip), vehicle: saline, evaluated on day 70","108, 109, 129 % of control"
same,T/C,"dose: 1600.0 mg/kg/injection, schedule: Q04DX003 (ip), vehicle: saline, evaluated on day 60",112 and 116 % of control
same,T/C,"dose: 1600.0 mg/kg/injection, schedule: Q04DX003 (ip), vehicle: saline, evaluated on day 70","94, 109, 121 % of control"
